The list shows only some results of the screen, not a fair sample: it gathers tests that were run many times, whatever their T/C, doses with no T/C, and many T/C values between a quarter and a half above the control. Other doses and runs of a compound stand elsewhere. T/C: endpoint of the treated group in % of that of the vehicle group. Some doses have a count of surviving animals in place of a T/C: the source holds a T/C of zero for them, seemingly a mark for toxic or unscored doses. Some doses without a T/C left all or most animals alive at the check, yet need not have been tolerated: survival well below the control is almost never listed, so the zero probably covers shortened survival too. Survivors were counted at the toxicity check, usually on the fifth day, unless a day is given; later deaths do not show. Schedules are NCI's codes, taken here to give the interval after Q, in days (D) or hours (H), and the number of doses after X. Some entries were tested several times; their values stand side by side, smallest first. Some schedule codes hold Z or #, which are not explained here. For survival time, the PubChem record calls one and a half times the control and up active, and a quarter to a half above the control has no call in these data; cut-offs in other NCI protocols can differ. Some T/C values are followed by the survivors on the day toxicity was checked, most often the fifth; without a count, all were alive then. Counts like (3×) stand for listed records that agree.
Test system: L1210 leukemia ip in BDF1 mice, survival T/C
Experiment: NCI In Vivo Anticancer Drug Screen. Data for tumor model L1210 Leukemia (intraperitoneal) in B6D2F1 (BDF1) mice
Conditions: T/C endpoint: mean survival time, higher T/C = longer survival
[1] = dose: 100.0 mg/kg/injection, schedule: Q01DX009 (ip), vehicle: saline with Tween-80
[2] = dose: 400.0 mg/kg/injection, schedule: Q04DX003 (ip), vehicle: Klucel (hydroxypropylcellulose) (HPC)
[3] = dose: 100.0 mg/kg/injection, schedule: Q01DX009 (ip), vehicle: Klucel (hydroxypropylcellulose) (HPC)
[4] = dose: 200.0 mg/kg/injection, schedule: Q01DX009 (ip), vehicle: Klucel (hydroxypropylcellulose) (HPC)
[5] = dose: 400.0 mg/kg/injection, schedule: Q01DX009 (ip), vehicle: Klucel (hydroxypropylcellulose) (HPC)
[6] = dose: 200.0 mg/kg/injection, schedule: Q01DX009 (ip), vehicle: saline with Tween-80
[7] = dose: 100.0 mg/kg/injection, schedule: Q04DX003 (ip), vehicle: saline
[8] = dose: 200.0 mg/kg/injection, schedule: Q01DX001 (ip), vehicle: saline
[9] = dose: 400.0 mg/kg/injection, schedule: Q01DX001 (ip), vehicle: saline

With `Cc1ccc2c(C)c3ccc4ccccc4c3c[n+]2c1` the survivor count (dose: 25.0 mg/kg/injection, schedule: Q01DX009 (ip), vehicle: saline with Tween-80) was 3 of 6, the survivor count (dose: 50.0 mg/kg/injection, schedule: Q01DX009 (ip), vehicle: saline with Tween-80) was 3 of 6 and the survivor count [1] was 4 of 6. The survivor count (dose: 100.0 mg/kg/injection, schedule: Q04DX003 (ip), vehicle: Klucel (hydroxypropylcellulose) (HPC)) was 3 of 6, the survivor count (dose: 200.0 mg/kg/injection, schedule: Q04DX003 (ip), vehicle: Klucel (hydroxypropylcellulose) (HPC)) was 3 of 6 and the survivor count [2] was 6 of 6. The survivor count (dose: 800.0 mg/kg/injection, schedule: Q04DX003 (ip), vehicle: Klucel (hydroxypropylcellulose) (HPC)) was 2 of 6.

`COc1ccccc1-n1c(O)c(N=Nc2ccc(C)cc2)c(=O)n(-c2ccc(Cl)cc2)c1=S` was tested, and the survivor count (dose: 400.0 mg/kg/injection, schedule: Q01DX001 (ip), vehicle: Klucel (hydroxypropylcellulose) (HPC)) was 1 of 6.

`CC(C)=C(CSC#N)S(=O)(=O)c1ccc(C)cc1` was tested, and the survivor count [3] was 0 of 6, the survivor count [4] was 0 of 6 and the survivor count [5] was 0 of 6.

In the case of `CCC1C(=O)CCN(C)C1c1cc2ccccc2[nH]1` (configuration not stated), the survivor count (dose: 400.0 mg/kg/injection, schedule: Q01DX001 (ip), vehicle: carboxymethylcellulose (CMC)) is reported as 1 of 6.

`O=C(/C=C/c1ccccc1)NC(=S)Nc1ccc(CCO)cc1` was tested, and the T/C [1] was 95, 96, 99 % of control, the survivor count [1] was 6 of 6 and the T/C [6] was 93, 95 (2×), 99 % of control. For the same compound, the survivor count (dose: 400.0 mg/kg/injection, schedule: Q04DX002 (ip), vehicle: saline with Tween-80) was 6 of 6.

For `CCCCC(CC)CNC(C)=O` (configuration not stated), the survivor count [2] was 2 of 6.

With `COc1ccc2c(c1)CN(C)CC2` the survivor count (dose: 150.0 mg/kg/injection, schedule: Q01DX001 (ip), vehicle: other) was 2 of 6 and the survivor count (dose: 300.0 mg/kg/injection, schedule: Q01DX001 (ip), vehicle: other) was 0 of 6.

For `CCOC(=O)c1c[n]([Hg][n]2cc(C(=O)OCC)c(Nc3ccccc3Cl)nc2=O)c(=O)nc1Nc1ccccc1Cl`, the survivor count (dose: 25.0 mg/kg/injection, schedule: Q04DX003 (ip), vehicle: saline with Tween-80) was 3 of 6 and the survivor count (dose: 50.0 mg/kg/injection, schedule: Q04DX003 (ip), vehicle: saline with Tween-80) was 0 of 6.

With `C=CCc1ccc(OC(=O)Nc2ccc(SC)cc2)c(OC)c1` the T/C [1] was 90 (2×), 96, 97 % of control, the T/C [6] was 86, 97, 98 % of control and the survivor count [6] was 6 of 6.

`Cc1cc(C(C)(C)C)c(OC(=S)N(C)C)c(C(C)(C)C)c1` was tested, and the survivor count (dose: 100.0 mg/kg/injection, schedule: Q04DX003 (ip), vehicle: saline with Tween-80) was 6 of 6, the survivor count (dose: 200.0 mg/kg/injection, schedule: Q04DX003 (ip), vehicle: saline with Tween-80) was 6 of 6 and the survivor count (dose: 400.0 mg/kg/injection, schedule: Q04DX003 (ip), vehicle: saline with Tween-80) was 6 of 6.

With `O=C(Nc1ccccc1-c1ccc([N+](=O)[O-])cc1)c1ccc(-c2ccccc2)cc1` the survivor count [7] was 6 of 6 and the survivor count (dose: 200.0 mg/kg/injection, schedule: Q04DX003 (ip), vehicle: saline) was 6 of 6.

In the case of `C#CC[N+](CC)(CC)CC`, the survivor count (dose: 100.0 mg/kg/injection, schedule: Q01DX009 (ip), vehicle: saline) is reported as 5 of 6 and 3 of 3, the T/C (dose: 100.0 mg/kg/injection, schedule: Q04DX002 (ip), vehicle: saline) is reported as 95, 97, 103, 107 % of control and the survivor count [8] is reported as 1 of 6. For the same compound, the survivor count (dose: 200.0 mg/kg/injection, schedule: Q04DX002 (ip), vehicle: saline) was 0 of 6 and 1 of 3, the survivor count [9] was 1 of 6 and the survivor count (dose: 400.0 mg/kg/injection, schedule: Q04DX002 (ip), vehicle: saline) was 0 of 3 and 0 of 6.

`CCc1ccc(NC(=O)c2c(Br)c(Br)c(Br)c(Br)c2C(=O)O)cc1` was tested, and the survivor count [4] was 2 of 6 and the survivor count [5] was 0 of 6.

`O=C(Nc1cc(NC(=O)Nc2cccc(C3=NCCN3)c2)cc(C(=O)Nc2ccccc2)c1)Nc1cccc(C2=NCCN2)c1` was tested, and the survivor count (dose: 480.0 mg/kg/injection, schedule: Q01DX Z (ip), vehicle: carboxymethylcellulose (CMC)) was 0 of 6.

`CNc1cc(N)ncn1` was tested, and the survivor count (dose: 225.0 mg/kg/injection, schedule: Q01DX Z (ip), vehicle: saline) was 3 of 6.

In the case of `O=S(=O)(Cl)c1cc(Cl)ccc1Cl`, the survivor count [3] is reported as 2 of 6, the survivor count [4] is reported as 2 of 6 and the survivor count [5] is reported as 0 of 6.

With `O=C(Nc1cccc(C2=NCCN2)c1)c1ccc(C(=O)Nc2cccc(C3=NCCN3)c2)c(Cl)c1` the survivor count (dose: 12.0 mg/kg/injection, schedule: Q01DX Z (ip), vehicle: water) was 0 of 6, the survivor count (dose: 25.0 mg/kg/injection, schedule: Q01DX Z (ip), vehicle: water) was 0 of 6 and the survivor count (dose: 50.0 mg/kg/injection, schedule: Q01DX Z (ip), vehicle: water) was 0 of 6. The survivor count (dose: 100.0 mg/kg/injection, schedule: Q01DX Z (ip), vehicle: water) was 0 of 6.

For `CCCCCCCCOP(=O)(N1CC1)N1CC1`, the T/C (dose: 4.67 mg/kg/injection, schedule: Q01DX015 (ip), vehicle: saline) was 127 % of control, the T/C (dose: 7.0 mg/kg/injection, schedule: Q01DX015 (ip), vehicle: saline) was 140 % of control and the T/C (dose: 8.0 mg/kg/injection, schedule: Q01DX015 (ip), vehicle: saline) was 132 % of control. For the same compound, the T/C (dose: 12.0 mg/kg/injection, schedule: Q01DX001 (ip), vehicle: saline) was 128 % of control, the T/C (dose: 18.0 mg/kg/injection, schedule: Q01DX001 (ip), vehicle: saline) was 130 % of control and the T/C (dose: 28.0 mg/kg/injection, schedule: Q01DX001 (ip), vehicle: saline) was 139 % of control. The T/C (dose: 30.0 mg/kg/injection, schedule: Q01DX015 (ip), vehicle: saline) was 130 % of control, the T/C (dose: 44.4 mg/kg/injection, schedule: Q01DX001 (ip), vehicle: saline) was 138 % of control and the T/C (dose: 50.0 mg/kg/injection, schedule: Q01DX001 (ip), vehicle: saline) was 140 % of control. For the same compound, the T/C (dose: 50.0 mg/kg/injection, schedule: Q01DX015 (ip), vehicle: saline) was 135 % of control [5 of 6 alive], the survivor count (dose: 75.0 mg/kg/injection, schedule: Q01DX015 (ip), vehicle: saline) was 3 of 6 and the T/C (dose: 100.0 mg/kg/injection, schedule: Q01DX001 (ip), vehicle: saline) was 193, 197, 233, 271 % of control [5 of 6 alive]. The survivor count (dose: 112.0 mg/kg/injection, schedule: Q01DX015 (ip), vehicle: saline) was 0 of 6, the survivor count (dose: 150.0 mg/kg/injection, schedule: Q01DX001 (ip), vehicle: saline) was 3 of 6 and the survivor count [8] was 0 of 4. The survivor count [9] was 0 of 4.

In the case of `c1ccc2c(c1)OP(OP1Oc3ccccc3O1)O2`, the survivor count (dose: 150.0 mg/kg/injection, schedule: Q01DX009 (ip), vehicle: saline with Tween-80) is reported as 3 of 6, the survivor count (dose: 225.0 mg/kg/injection, schedule: Q01DX009 (ip), vehicle: saline with Tween-80) is reported as 0 of 6 and the survivor count (dose: 335.0 mg/kg/injection, schedule: Q01DX009 (ip), vehicle: saline with Tween-80) is reported as 0 of 6.

`Cc1cc(C)c(C(=O)c2ccccc2)c(=O)o1` was tested, and the survivor count (dose: 80.0 mg/kg/injection, schedule: Q01DX001 (ip), vehicle: carboxymethylcellulose (CMC)) was 2 of 4, the survivor count (dose: 100.0 mg/kg/injection, schedule: Q01DX001 (ip), vehicle: carboxymethylcellulose (CMC)) was 0 of 4 and the survivor count (dose: 200.0 mg/kg/injection, schedule: Q01DX001 (ip), vehicle: carboxymethylcellulose (CMC)) was 0 of 4.

For `CC(C)CC(NC(=O)C(Cc1ccc(OCc2ccccc2)cc1)NC=O)C(=O)O` (configuration not stated), the survivor count (dose: 400.0 mg/kg/injection, schedule: Q01DX009 (ip), vehicle: saline with Tween-80) was 2 of 6.

For `O=S(=O)(O)CCN1CCOCC1`, the survivor count [4] was 3 of 6.

In the case of `C=CCNCCN1CCN(CCCN2c3ccccc3Sc3ccc(C(F)(F)F)cc32)CC1`, the survivor count (dose: 50.0 mg/kg/injection, schedule: Q01DX009 (ip), vehicle: saline) is reported as 4 of 6 and the survivor count [7] is reported as 1 of 6.
